From publication PMC2655719
No constants are given. Whether binding was seen depends on the method and setting. Binding seen in cells or lysates may run through a third protein. For some of these results: Binding can be weak; no strength is given. For some of these results: Where a sequence is shown, tags or fusion partners need not be part of it.

By UniProt entry, the sequences of proteins in these tests, tags left out. Where a name states a change or a piece, a line headed by the entry shows the natural chain unless it says otherwise.
UniProt P61225: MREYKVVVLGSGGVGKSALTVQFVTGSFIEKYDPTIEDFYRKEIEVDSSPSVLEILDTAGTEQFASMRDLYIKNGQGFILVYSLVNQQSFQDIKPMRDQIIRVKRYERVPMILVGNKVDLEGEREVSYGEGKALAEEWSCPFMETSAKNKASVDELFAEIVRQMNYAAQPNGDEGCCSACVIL
UniProt P61224: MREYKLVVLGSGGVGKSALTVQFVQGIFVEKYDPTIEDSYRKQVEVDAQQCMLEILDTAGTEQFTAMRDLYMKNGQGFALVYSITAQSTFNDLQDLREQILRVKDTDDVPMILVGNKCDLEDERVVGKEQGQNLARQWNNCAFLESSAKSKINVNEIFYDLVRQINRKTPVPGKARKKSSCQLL
UniProt P62834: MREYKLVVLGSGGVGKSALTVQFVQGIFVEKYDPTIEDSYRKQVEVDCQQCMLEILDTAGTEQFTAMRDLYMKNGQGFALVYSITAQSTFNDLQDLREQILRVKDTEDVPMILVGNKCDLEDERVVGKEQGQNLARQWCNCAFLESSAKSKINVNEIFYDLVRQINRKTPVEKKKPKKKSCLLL
UniProt P10114: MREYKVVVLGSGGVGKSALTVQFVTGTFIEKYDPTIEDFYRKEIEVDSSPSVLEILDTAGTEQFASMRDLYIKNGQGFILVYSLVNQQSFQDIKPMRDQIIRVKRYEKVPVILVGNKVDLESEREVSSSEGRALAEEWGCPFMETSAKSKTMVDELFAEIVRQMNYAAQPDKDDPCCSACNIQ

How the values were obtained:
[1] = molecular target: T1, GST-RGS14-His6 (full-length RGS14) (UniProt O08773); assay: pull-down; 500 pmol purified GST-fusion protein added to pre-cleared lysate of HEK293T cells transfected with the GTPase, overnight at 4°C; precipitated with glutathione agarose; 20 mM TRIS/HCl pH 7.5, 100 mM NaCl, 20 mM MgCl2, 1 mM EGTA, 1% Triton X-100; immunoblot; only the target purified
T1 sequence: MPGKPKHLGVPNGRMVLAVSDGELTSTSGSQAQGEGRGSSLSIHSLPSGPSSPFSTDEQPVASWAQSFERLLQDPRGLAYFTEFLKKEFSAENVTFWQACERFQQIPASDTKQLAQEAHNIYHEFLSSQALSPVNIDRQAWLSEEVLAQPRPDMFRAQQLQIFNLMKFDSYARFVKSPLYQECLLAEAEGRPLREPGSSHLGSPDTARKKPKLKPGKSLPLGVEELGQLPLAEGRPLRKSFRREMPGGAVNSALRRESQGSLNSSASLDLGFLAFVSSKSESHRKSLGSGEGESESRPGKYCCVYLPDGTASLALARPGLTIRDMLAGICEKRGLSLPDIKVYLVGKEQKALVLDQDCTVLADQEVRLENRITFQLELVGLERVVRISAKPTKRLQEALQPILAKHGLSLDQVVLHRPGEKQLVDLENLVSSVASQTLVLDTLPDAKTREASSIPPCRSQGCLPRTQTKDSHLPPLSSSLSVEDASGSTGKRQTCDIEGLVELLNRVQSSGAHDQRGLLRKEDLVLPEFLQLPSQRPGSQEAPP

[2] = molecular target: T2, full-length myc-RGS14 (rat) (UniProt O08773); assay: co-IP; HEK293T cells co-transfected with myc-RGS14 and one partner; lysates immunoprecipitated with anti-myc overnight at 4°C, protein A/G agarose; buffers with 20 mM MgCl2; immunoblot
T2 sequence: T1 sequence

RGS14-YFPC = molecular target: T3, RGS14-YFPC (UniProt O08773); assay: split reporter; YFP bimolecular fluorescence complementation in HEK293T cells co-transfected with YFPN and YFPC fusions; epifluorescence microscopy 48 h after transfection, percent of fluorescent pixels
T3 sequence: T1 sequence

| binding [1] | binding [2] | binding (RGS14-YFPC) | Substance |
| --- | --- | --- | --- |
| binds | no binding | – | FLAG-tagged mutationally-activated (GV) Rap2B (from UniProt P61225) |
| – | no binding | – | mutationally activated Rap1B (from UniProt P61224) |
| – | no binding | – | mutationally activated Rap1A (from UniProt P62834) |
| – | no binding | – | untagged activated (GV) Rap2A (from UniProt P10114) |
| binds | – | – | HA-tagged mutationally-activated (GV) Rap2A (from UniProt P10114) |
| – | – | no binding | YFPN alone (N-terminal fragment of Yellow Fluorescent Protein, amino acids 1-159) (domain or fragment) |
